No constants are given. Whether binding was seen depends on the method and setting. Some entries that bind do so weakly or less than the wild type.
Biological target: T1, human KLRG1, plate-coated (Example 21) (human) (UniProt Q96E93)
T1 sequence (looked up): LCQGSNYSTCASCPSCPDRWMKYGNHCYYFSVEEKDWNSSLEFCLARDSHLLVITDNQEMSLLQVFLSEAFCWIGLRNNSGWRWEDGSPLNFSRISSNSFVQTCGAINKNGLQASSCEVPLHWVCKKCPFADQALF
Test: ELISA (figure legend)

Amino acid sequences for entries named in this document (tags omitted). A change or cut given only in a name is not applied to a line headed by its entry.
UniProt P12830: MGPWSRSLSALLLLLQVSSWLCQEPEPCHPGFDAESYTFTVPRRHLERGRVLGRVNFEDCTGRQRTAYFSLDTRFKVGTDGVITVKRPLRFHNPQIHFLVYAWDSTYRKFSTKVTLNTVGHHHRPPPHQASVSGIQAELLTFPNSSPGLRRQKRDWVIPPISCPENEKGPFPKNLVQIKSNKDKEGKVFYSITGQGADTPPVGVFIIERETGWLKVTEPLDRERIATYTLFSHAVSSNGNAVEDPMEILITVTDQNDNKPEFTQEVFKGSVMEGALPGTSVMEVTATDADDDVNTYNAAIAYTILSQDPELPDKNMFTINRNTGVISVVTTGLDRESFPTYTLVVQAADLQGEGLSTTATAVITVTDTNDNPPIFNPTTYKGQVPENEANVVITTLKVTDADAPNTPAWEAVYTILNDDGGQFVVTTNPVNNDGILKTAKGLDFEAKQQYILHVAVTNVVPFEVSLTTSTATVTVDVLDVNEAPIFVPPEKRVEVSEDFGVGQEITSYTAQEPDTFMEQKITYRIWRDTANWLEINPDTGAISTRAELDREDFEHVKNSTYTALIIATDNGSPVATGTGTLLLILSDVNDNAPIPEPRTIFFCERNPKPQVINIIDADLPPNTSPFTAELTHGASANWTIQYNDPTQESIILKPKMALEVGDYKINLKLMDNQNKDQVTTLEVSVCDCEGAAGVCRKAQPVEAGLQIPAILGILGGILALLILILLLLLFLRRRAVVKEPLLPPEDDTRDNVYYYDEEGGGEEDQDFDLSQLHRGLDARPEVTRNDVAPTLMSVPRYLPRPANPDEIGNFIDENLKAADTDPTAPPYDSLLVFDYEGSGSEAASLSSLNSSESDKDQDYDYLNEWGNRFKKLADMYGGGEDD

## recombinant soluble human E-cadherin (from UniProt P12830 155-709) (ligand)
  binding: binds
